Measured values as given in publication PMC7895832.
Where two headings read alike, the source gives them in different places. No constants are given. Whether binding was seen depends on the method and setting. Binding seen in cells or lysates may run through a third protein. Some entries that bind do so weakly or less than the wild type.

Amino acid sequences for entries named in this document (tags omitted).
UniProt Q8CFI0: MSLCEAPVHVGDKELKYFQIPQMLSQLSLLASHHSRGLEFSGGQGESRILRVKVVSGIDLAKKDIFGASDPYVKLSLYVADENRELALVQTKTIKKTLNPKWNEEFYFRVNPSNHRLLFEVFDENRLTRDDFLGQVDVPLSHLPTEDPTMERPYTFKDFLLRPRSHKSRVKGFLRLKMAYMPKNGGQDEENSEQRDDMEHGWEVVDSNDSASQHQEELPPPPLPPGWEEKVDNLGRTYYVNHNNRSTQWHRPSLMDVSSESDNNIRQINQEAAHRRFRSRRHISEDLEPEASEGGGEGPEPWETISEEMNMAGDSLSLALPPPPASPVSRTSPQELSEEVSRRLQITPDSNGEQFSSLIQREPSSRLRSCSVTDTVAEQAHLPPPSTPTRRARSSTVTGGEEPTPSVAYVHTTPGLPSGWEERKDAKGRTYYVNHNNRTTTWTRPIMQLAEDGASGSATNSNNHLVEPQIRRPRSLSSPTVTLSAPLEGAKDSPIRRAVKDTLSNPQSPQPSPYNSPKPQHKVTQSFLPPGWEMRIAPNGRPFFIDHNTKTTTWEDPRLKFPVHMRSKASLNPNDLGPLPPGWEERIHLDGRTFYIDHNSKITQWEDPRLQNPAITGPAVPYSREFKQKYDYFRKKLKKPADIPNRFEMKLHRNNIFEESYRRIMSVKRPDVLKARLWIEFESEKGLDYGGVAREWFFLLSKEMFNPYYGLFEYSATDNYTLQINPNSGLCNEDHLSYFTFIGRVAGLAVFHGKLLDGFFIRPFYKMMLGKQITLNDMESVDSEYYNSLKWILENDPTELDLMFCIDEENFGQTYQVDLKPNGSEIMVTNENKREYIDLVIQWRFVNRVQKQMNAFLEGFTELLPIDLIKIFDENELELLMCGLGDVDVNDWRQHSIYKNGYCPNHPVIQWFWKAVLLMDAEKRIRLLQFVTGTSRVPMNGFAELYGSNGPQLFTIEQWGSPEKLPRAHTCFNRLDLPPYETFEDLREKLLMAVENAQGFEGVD

T1: endogenous TRAF3 (mouse peritoneal macrophages) (mouse (endogenous in peritoneal macrophages)) (UniProt Q60803)
T1 sequence: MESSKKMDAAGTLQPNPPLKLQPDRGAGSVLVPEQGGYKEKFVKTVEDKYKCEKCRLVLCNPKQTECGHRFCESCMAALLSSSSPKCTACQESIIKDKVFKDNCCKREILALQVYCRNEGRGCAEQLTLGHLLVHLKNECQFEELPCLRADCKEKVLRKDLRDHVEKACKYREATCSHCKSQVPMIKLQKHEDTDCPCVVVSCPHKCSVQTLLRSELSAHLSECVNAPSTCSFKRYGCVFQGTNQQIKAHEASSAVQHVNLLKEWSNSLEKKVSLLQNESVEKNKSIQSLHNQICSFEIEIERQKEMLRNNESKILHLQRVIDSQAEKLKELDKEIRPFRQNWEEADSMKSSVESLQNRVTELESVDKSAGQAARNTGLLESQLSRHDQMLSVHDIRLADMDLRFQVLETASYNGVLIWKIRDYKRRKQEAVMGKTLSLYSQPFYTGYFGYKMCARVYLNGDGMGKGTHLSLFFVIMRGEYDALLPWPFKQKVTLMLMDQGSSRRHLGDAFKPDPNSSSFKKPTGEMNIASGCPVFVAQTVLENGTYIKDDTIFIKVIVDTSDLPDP

B1: endogenous HECTD3 (mouse peritoneal macrophages) (enzyme, UniProt Q3U487 1-861)
chain: MAGPGPGAALESPRQLLGRVRFLAEAARSLRAGLPLPAALAFVPREVLYKLYKDPAGPSRVLLPVWEAEGLGLRVGAVGAAPGTGSGPLRAARDSIELRRGACVRTTGEELCNGHGLWVKLTKEQLAEHLSDCSLDEGWLLVCRPAEGGARLVPIDTPDHLQRQQQLFGVDYRPVLRWEQVVDLTYSHRLGSRPQPAEAYTEAIQRLLYVPPTWTYECDEDLIHFLYDHLGKEDENLGSVKQYVESIDVSSYTEEFNVSCLTDSNADTYWESDGSQCQHWVRLTMKKGTIVKKLLLTVDTTDDNFMPKRVVVYGGEGDNLKKLSDVNIDETLIGDVCVLEDMTVHLPIIEIRIVECRDDGIDVRLRGVKIKSSRQRELGLNADLFQPASLVRYPRLEGTDPEVLYRRAVLLQRFIKILDSVLHHLVPAWDHTLGTFSEIKQVKQFLLLSRQRPSLVAQCLRDSESSKPSFMPRLYINRRLAMEHRACPSRDPACKNAVFTQVYEGLKPSDKYEKPLDYRWPMRYDQWWECKFIAEGIIDQGGGFRDSLADMSEELCPSSADTPVPLPFFVRTANQGNGTGEARDMYVPNPSCRDFAKYEWIGQLMGAALRGKEFLVLALPGFVWKQLSGEEVSWSKDFPAVDSVLVKLLEVMEGVDKETFEFKFGKELTFTTVLSDQQVVELIPGGTGIVVEYEDRSRFIQLVRKARLEESKEQVAAMQAGLLKVVPQAVLDLLTWQELEKKVCGDPEVTVDALRKLTRFEDFEPSDTRVQYFWEALNNFTNEDRSRFLRFVTGRSRLPARIYIYPDKLGYETTDALPESSTCSSTLFLPHYASAKVCEEKLRYAAYNCVAIDTDMSPWEE

Key:
[1] = molecular target: T1, endogenous TRAF3 (mouse peritoneal macrophages) (mouse (endogenous in peritoneal macrophages)); assay: co-IP
[2] = molecular target: T1, endogenous TRAF3 (mouse peritoneal macrophages) (mouse (endogenous in peritoneal macrophages)); assay: co-IP; remark: listed apart in the source

Row | Molecule | binding [1] | binding [2]
1 | endogenous Nedd4l (mouse peritoneal macrophages) (from UniProt Q8CFI0 1-1004) (enzyme) | binds | –
2 | B1 | – | binds
